The list shows a part of the results.
Target: OsWRKY34 (Oryza sativa, UniProt Q0JBA9 1-250)
Assay: protein-binding microarray (RPBM); PBS, 2% BSA, 51.3 ng/ul salmon testes DNA, 50 uM zinc acetate, 200 nM TF, 25 C, 1 h; high values mean tight binding
Conditions: protein: recombinant; tags: N-terminal polyhistidine and DsRed monomer fusion (pET32a); label: CyDye5-dUTP incorporated in the synthesized complementary strand; 3' TTTTT single-stranded linker to array surface; dsDNA, one strand shown
How it was run: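 An Axon 4000B scanner gave the binding signal as per-feature fluorescence intensity in arbitrary units. This followed washing of a custom Agilent array that had been incubated for 1 h at 25 °C with 200 nM protein in PBS, 2% BSA, salmon testes DNA and 50 µM zinc acetate. The proteins were transcription factors fused at the N-terminus to polyhistidine and DsRed, expressed in E. coli BL21-CodonPlus and purified on Ni–NTA.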

Sequences of proteins named here, by UniProt entry; tags and fusion partners are left off.
UniProt Q0JBA9, entry or part of it: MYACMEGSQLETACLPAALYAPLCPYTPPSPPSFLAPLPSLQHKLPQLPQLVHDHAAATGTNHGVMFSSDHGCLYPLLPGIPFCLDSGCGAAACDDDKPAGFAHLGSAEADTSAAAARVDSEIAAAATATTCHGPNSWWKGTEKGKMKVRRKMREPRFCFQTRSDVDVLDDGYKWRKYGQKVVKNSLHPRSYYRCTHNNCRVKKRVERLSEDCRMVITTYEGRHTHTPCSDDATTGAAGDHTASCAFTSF

First: TGAATGCAAGCTTTCTTTTTCATCATGCAGCATTTGCAGTCGGAGTCACCTAGTGCAG
Second: GAACCTGTATAAAAATCATCGTCTCCATCTCTTTTACCTCCGGAGTCACCTAGTGCAG
The binding signal of the first is higher: 8330 fluorescence intensity (a.u.) for the first, 8260 fluorescence intensity (a.u.) for the second.

Compared with “TTTCCATCTTCTGTATACTCCTCCTGTTTCGCTGTAAATTCGGAGTCACCTAGTGCAG”, “TGTGTTTTGGATGGATAATATTTACACTTGACGCCAACATCGGAGTCACCTAGTGCAG” is lower in binding signal: 10700 fluorescence intensity (a.u.) for the first, 8160 fluorescence intensity (a.u.) for the second.

First: TCTCCCTGCCACCGACGTCACCGCCCGCCATCGACGCCTCCGGAGTCACCTAGTGCAG
Second: GCCGTGCTGCTCTCCTCCGGCGCCATGTTGCCCAACCGCCCGGAGTCACCTAGTGCAG
The binding signal of the first is higher: 9850 fluorescence intensity (a.u.) for the first, 8440 fluorescence intensity (a.u.) for the second.

Compared with “ATCACCGAATAACAATACAAATTGTTGATCATAGATCTTTCGGAGTCACCTAGTGCAG”, “ACAGTTGTGACAGTCATCACCTAGCAGAATTAATCTTGTCCGGAGTCACCTAGTGCAG” is lower in binding signal: 8470 fluorescence intensity (a.u.) for the first, 8430 fluorescence intensity (a.u.) for the second.

Compared with “ACCCGGTGTCGCGGCCAACCCCACCGCCACCTCCATGCCCCGGAGTCACCTAGTGCAG”, “GCCGATGCTGCCGCCCCGCCTCCGCCGCCCTGCCGCCGGCCGGAGTCACCTAGTGCAG” is higher in binding signal: 11400 fluorescence intensity (a.u.) for the first, 11700 fluorescence intensity (a.u.) for the second.

Compared with “ATATCTTGTCGCTTTCTCAATCAACAATTTGCGTTAACTTCGGAGTCACCTAGTGCAG”, “GTCTTCCTCGTCGTCTTGCAAGTCTGCTTCCACCTCTCTTCGGAGTCACCTAGTGCAG” is higher in binding signal: 11200 fluorescence intensity (a.u.) for the first, 11800 fluorescence intensity (a.u.) for the second.

Compared with “AAACGCGTCCCCATCGATATTTTCTCTCTCTCTCTCTCTCCGGAGTCACCTAGTGCAG”, “CATTTCCAGCTCCATCCTGTTTGGCAATGGTTTTTCTCTCCGGAGTCACCTAGTGCAG” is higher in binding signal: 8110 fluorescence intensity (a.u.) for the first, 11200 fluorescence intensity (a.u.) for the second.

First: CTTTTTCCTATTTTCCAATTTGGTTGATTTTCCTATTTTTCGGAGTCACCTAGTGCAG
Second: GGTTGATTTAATTCTGTATCTTTGATTTGATCTATAGCGTCGGAGTCACCTAGTGCAG
The binding signal of the first is lower: 9580 fluorescence intensity (a.u.) for the first, 11400 fluorescence intensity (a.u.) for the second.

Compared with “TCTTTCGTTCTCTCGGCTCTGTTTCCTTCTCTCATCTTTCCGGAGTCACCTAGTGCAG”, “CCATCTTGTTCTGACCTGTGCGCTTTTCTTTGAACCTGGCCGGAGTCACCTAGTGCAG” is lower in binding signal: 13200 fluorescence intensity (a.u.) for the first, 10000 fluorescence intensity (a.u.) for the second.

First: ATTCTATTCCTACATTTGTTCCTATTGCTGTGTTTTCTCACGGAGTCACCTAGTGCAG
Second: GTCGGCGTCGGCGTCGGCGTCGGCGGGCGGGAGGCGGGAGCGGAGTCACCTAGTGCAG
The binding signal of the first is higher: 13600 fluorescence intensity (a.u.) for the first, 8650 fluorescence intensity (a.u.) for the second.

Going from “GCCACAAGCTCTAATTTTGGTTAATTAATCAATTTCCTATCGGAGTCACCTAGTGCAG” to “GAGCTCCAAAGCTACGGTTTTTTTTTCTCTTTCTTTCTCACGGAGTCACCTAGTGCAG”, the binding signal rises from 8400 fluorescence intensity (a.u.) to 9080 fluorescence intensity (a.u.).

Compared with “CTCACACACACACTCTGCACTGCAGAAACCGGCTCGACCACGGAGTCACCTAGTGCAG”, “CTCGGCAACAAATTTTTCATCGGTTTGTCTGTGTTTAGTTCGGAGTCACCTAGTGCAG” is lower in binding signal: 11400 fluorescence intensity (a.u.) for the first, 11100 fluorescence intensity (a.u.) for the second.

Going from “TTTGCTAATACAATATTCTCGGTCAACATGCTGCATATCGCGGAGTCACCTAGTGCAG” to “TTTCTCCTTGGAAAGTGGGCGGGCTGGCATTGCATTGCCTCGGAGTCACCTAGTGCAG”, the binding signal rises from 10200 fluorescence intensity (a.u.) to 12800 fluorescence intensity (a.u.).

Going from “TACTCTACTGCCTTAACTATTTTTCCTTTTGTATTATACTCGGAGTCACCTAGTGCAG” to “TTGTCCACTTGGCCCGTAAGGCGTAAGCAGCGACACCCGCCGGAGTCACCTAGTGCAG”, the binding signal falls from 8470 fluorescence intensity (a.u.) to 8410 fluorescence intensity (a.u.).

Compared with “ATGTATTGCATAACTGTGTTGACTATTGTTGACTTGTGTACGGAGTCACCTAGTGCAG”, “CTCGTATTGGGTTGTTATATGGAAACTTCTTTCAATATTGCGGAGTCACCTAGTGCAG” is lower in binding signal: 11000 fluorescence intensity (a.u.) for the first, 8410 fluorescence intensity (a.u.) for the second.

Compared with “AGTGCGCTCATGTGACCTCTAATTTCTTGCTTTACTGCCTCGGAGTCACCTAGTGCAG”, “GCCTCACCCTCACCGCCACCCCGCCGCCGCCGATCTACACCGGAGTCACCTAGTGCAG” is higher in binding signal: 10000 fluorescence intensity (a.u.) for the first, 13000 fluorescence intensity (a.u.) for the second.

Going from “CCCTAATCGACGGTTGGAGTTCTGCTGCCGCTCACTTAACCGGAGTCACCTAGTGCAG” to “GGCCCAACACATCAGGCCTTGGACTCGTCTCTTTCCTCGGCGGAGTCACCTAGTGCAG”, the binding signal falls from 9270 fluorescence intensity (a.u.) to 8400 fluorescence intensity (a.u.).

Compared with “CCCTTGAGTTTTTATTTTGATCTCTTCTATCCCTATTCCGCGGAGTCACCTAGTGCAG”, “AAATCCGTGCTGCTTCTGATCCTTGCAGCCACTTTGCTTCCGGAGTCACCTAGTGCAG” is lower in binding signal: 12600 fluorescence intensity (a.u.) for the first, 8620 fluorescence intensity (a.u.) for the second.

First: TAACTATTCTACCTAATTACTTAACCCCTAAACTCTTTCACGGAGTCACCTAGTGCAG
Second: AGTCTATATCACTCATTCAATTCCTACGTTTTTCAAATGGCGGAGTCACCTAGTGCAG
The binding signal of the first is lower: 8060 fluorescence intensity (a.u.) for the first, 9010 fluorescence intensity (a.u.) for the second.

“TTTACTGGTTCTCTGTGTTGTTCATTATTTTTTCATCTTTCGGAGTCACCTAGTGCAG” and “GATGCCTGCCAATCTGCCATGCCATTATATCTGCAGTTCTCGGAGTCACCTAGTGCAG” are the same in binding signal: 12000 fluorescence intensity (a.u.) for the first, 12000 fluorescence intensity (a.u.) for the second.

Compared with “CATCGTCGCCCGTAGTTGTTTTATTTCTCCCGTTTTCTTCCGGAGTCACCTAGTGCAG”, “GGTTGGTAGCTTGATCAATATAGGCCTACTAAATTTTTCCCGGAGTCACCTAGTGCAG” is lower in binding signal: 13500 fluorescence intensity (a.u.) for the first, 9100 fluorescence intensity (a.u.) for the second.

Going from “ATATACTCCCTCCTTCCCTAAATGTTTGACGCCGTTGACTCGGAGTCACCTAGTGCAG” to “TACCTTGCATTGTTATTGAATATTTGGTTTATGCTTTACTCGGAGTCACCTAGTGCAG”, the binding signal falls from 11400 fluorescence intensity (a.u.) to 8680 fluorescence intensity (a.u.).

Compared with “CCTTACGAATACACACACGCTACCGCCAAATTTTGCCCACCGGAGTCACCTAGTGCAG”, “ATCTAGGTTCTTTCATCTTTTTTTTTCTTTTTTTGTTAAACGGAGTCACCTAGTGCAG” is higher in binding signal: 8330 fluorescence intensity (a.u.) for the first, 10800 fluorescence intensity (a.u.) for the second.

First: ATCGCCATAACACGGTCTTTCACTACAACAGATTGGTAACCGGAGTCACCTAGTGCAG
Second: CATTGCACGTAAACGAACATTTCTGCACTCAGCAAGCACACGGAGTCACCTAGTGCAG
The binding signal of the first is higher: 8640 fluorescence intensity (a.u.) for the first, 8510 fluorescence intensity (a.u.) for the second.

Compared with “CGTACTATATTATATGCATACACTTCTCTCAATGCAGCTCCGGAGTCACCTAGTGCAG”, “GCAACGTTTGACCACTTGTCTTATTTAATTTTTTTTTGCACGGAGTCACCTAGTGCAG” is lower in binding signal: 11100 fluorescence intensity (a.u.) for the first, 9340 fluorescence intensity (a.u.) for the second.

Compared with “TTGAGAGTTCTTTGCTTTTGAAGATTCACCTGTTCCTTTCCGGAGTCACCTAGTGCAG”, “ATCGGTGTCATCCCCAATCCTTGCCTCCGAGCCTAGTCCTCGGAGTCACCTAGTGCAG” is higher in binding signal: 9440 fluorescence intensity (a.u.) for the first, 9630 fluorescence intensity (a.u.) for the second.

Compared with “CACACGATTTTGCTATCCCGCAGTCCGCGCGCGCACCCGTCGGAGTCACCTAGTGCAG”, “ACCCACTTATCGCGCATGCAGGGGAGGAGGGGATCGAATCCGGAGTCACCTAGTGCAG” is higher in binding signal: 10300 fluorescence intensity (a.u.) for the first, 10600 fluorescence intensity (a.u.) for the second.

— paper PMC7819943, “Rice protein-binding microarrays: a tool to detect cis-acting elements near promoter regions in rice”
